PubChem BioAssay AID1259308 | NCATS – 2017
Here is one part, drawn at random, of about 59,000 reagents tested. About 1,510 of them (2.6%) were called active. 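Calls use total luciferase alone and ignore viability, so some active siRNAs may act by altering cell number.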 Not all columns of the deposit are shown.

Assay: 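Genes whose loss raises luciferase production in HEK293 cells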 (primary screen)
Cell system: human HEK293 embryonic kidney cells stably expressing firefly luciferase (HEK-CMV-Luc2-Hygro)
Reagent: single siRNA against human genes, 0.8 pmol siRNA per well
Timing: 72 h
Measured: 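Reporter luminescence and viable-cell signal on separate replicate plates, given as percent of non-targeting control and median/MAD z-scores, plus per-cell luciferase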
Direction: total luciferase, z-score and total luciferase, % of control: higher = more reporter protein produced
Active means: 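An siRNA counts as active if its total luciferase robust z-score exceeds 3; genes with two or more such siRNAs out of three were retested with fresh siRNAs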
Calls: active = raised luciferase; inactive = no rise

After knock-down of OR2T6 [SID160762232], the record shows total luciferase, z-score 0.902; total luciferase, % of control 99.8; inactive. After knock-down of OR2T6 [SID160762233], the record shows total luciferase, z-score 0.063; total luciferase, % of control 83.1; inactive. Depletion of OR2T6 [SID160762234] resulted in: total luciferase, z-score -0.489; total luciferase, % of control 72.2; inactive. For ZNF529 [SID160746641] the deposit lists total luciferase, z-score 0.473; total luciferase, % of control 91.3; inactive. ZNF529 [SID160746642] showed total luciferase, z-score -0.996; total luciferase, % of control 62.1; inactive. With knock-down of ZNF529 [SID160746643], the record shows total luciferase, z-score -0.408; total luciferase, % of control 73.8; inactive.

After knock-down of ACIN1 [SID160734488] the results were total luciferase, z-score 0.357; total luciferase, % of control 89; inactive. ACIN1 [SID160734497] gave total luciferase, z-score 0.24; total luciferase, % of control 86.7; inactive. For ACIN1 [SID160734508], the entry reads total luciferase, z-score -0.479; total luciferase, % of control 72.4; inactive. Silencing of RAC2 [SID160715577] resulted in: total luciferase, z-score -0.875; total luciferase, % of control 64.5; inactive. For RAC2 [SID160715578], the entry reads total luciferase, z-score 0.119; total luciferase, % of control 84.3; inactive. RAC2 [SID160715579] scored total luciferase, z-score -0.899; total luciferase, % of control 64; inactive.

As entered above:
OR2T6 [SID160762234], outcome → inactive
Value of OR2T6 [SID160762233] in “total luciferase, % of control”: 83.1

Continued:
Depletion of MATN1 [SID160776990] resulted in: total luciferase, z-score -0.984; total luciferase, % of control 62.3; inactive. Knock-down of MATN1 [SID160776992] resulted in: total luciferase, z-score 1.76; total luciferase, % of control 117; inactive. Depletion of MATN1 [SID160776993] resulted in: total luciferase, z-score -0.0855; total luciferase, % of control 80.2; inactive. Depletion of VPS35 [SID160744217] gave: total luciferase, z-score -3.02; total luciferase, % of control 21.8; inactive. For VPS35 [SID160744218] the deposit lists total luciferase, z-score -0.105; total luciferase, % of control 79.8; inactive. Against VPS35 [SID160744219], the values are total luciferase, z-score -1.04; total luciferase, % of control 61.1; inactive.

Against FSTL3 [SID160728046] the deposit lists total luciferase, z-score 0.94; total luciferase, % of control 101; inactive. Depletion of FSTL3 [SID160728047] came out at: total luciferase, z-score -0.69; total luciferase, % of control 68.2; inactive. For FSTL3 [SID160728048] the deposit lists total luciferase, z-score 2.77; total luciferase, % of control 137; inactive.
